The other results are listed elsewhere or left out.
Compound: CC1Cc2ccccc2N1C(=O)C1CCCN(C1)C(=O)CCl (mixture of isomers) [TRIM25 ligand 11 (diastereomer mixture)]
Assay: probe-labelled cysteine peptide fold change vs DMSO (competition) (log2 fold change); higher = less target engagement (more negative = stronger competition)
Conditions: THP-1, incubation time: 4 h
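Further: competitive chemoproteomic profiling in live THP-1 cells with an iodoacetamide desthiobiotin (IA-DTB) probe, comparing probe-labelled peptide intensities in compound-treated cells against DMSO-treated controls.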

Chains of the proteins cited; added tags and fusions are not shown. Lines headed by an entry give the natural chain unless they say otherwise; changes in a name come on top.
UniProt Q13574: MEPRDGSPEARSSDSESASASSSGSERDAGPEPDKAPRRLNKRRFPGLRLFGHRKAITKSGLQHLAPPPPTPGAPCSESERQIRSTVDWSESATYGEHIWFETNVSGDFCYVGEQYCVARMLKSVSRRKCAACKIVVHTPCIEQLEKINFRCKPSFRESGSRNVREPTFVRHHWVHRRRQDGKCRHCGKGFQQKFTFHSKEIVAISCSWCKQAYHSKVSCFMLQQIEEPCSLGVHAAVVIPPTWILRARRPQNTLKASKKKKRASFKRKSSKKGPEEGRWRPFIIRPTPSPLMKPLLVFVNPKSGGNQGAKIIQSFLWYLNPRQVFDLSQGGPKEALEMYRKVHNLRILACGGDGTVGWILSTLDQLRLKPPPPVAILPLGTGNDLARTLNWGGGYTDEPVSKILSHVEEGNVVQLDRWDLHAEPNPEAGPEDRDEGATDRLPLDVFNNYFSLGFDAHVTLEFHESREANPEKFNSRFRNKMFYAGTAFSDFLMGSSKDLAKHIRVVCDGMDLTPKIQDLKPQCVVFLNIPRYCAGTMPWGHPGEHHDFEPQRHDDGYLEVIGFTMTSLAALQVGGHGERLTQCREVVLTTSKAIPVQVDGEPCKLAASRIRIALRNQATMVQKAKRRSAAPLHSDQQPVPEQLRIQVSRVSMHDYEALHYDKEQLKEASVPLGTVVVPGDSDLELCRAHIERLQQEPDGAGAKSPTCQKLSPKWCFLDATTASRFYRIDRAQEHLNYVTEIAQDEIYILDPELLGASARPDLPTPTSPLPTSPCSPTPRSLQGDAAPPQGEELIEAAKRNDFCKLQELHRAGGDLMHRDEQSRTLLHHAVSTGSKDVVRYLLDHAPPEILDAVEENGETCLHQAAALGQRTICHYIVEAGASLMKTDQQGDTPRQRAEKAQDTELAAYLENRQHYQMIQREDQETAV
UniProt Q86XP3: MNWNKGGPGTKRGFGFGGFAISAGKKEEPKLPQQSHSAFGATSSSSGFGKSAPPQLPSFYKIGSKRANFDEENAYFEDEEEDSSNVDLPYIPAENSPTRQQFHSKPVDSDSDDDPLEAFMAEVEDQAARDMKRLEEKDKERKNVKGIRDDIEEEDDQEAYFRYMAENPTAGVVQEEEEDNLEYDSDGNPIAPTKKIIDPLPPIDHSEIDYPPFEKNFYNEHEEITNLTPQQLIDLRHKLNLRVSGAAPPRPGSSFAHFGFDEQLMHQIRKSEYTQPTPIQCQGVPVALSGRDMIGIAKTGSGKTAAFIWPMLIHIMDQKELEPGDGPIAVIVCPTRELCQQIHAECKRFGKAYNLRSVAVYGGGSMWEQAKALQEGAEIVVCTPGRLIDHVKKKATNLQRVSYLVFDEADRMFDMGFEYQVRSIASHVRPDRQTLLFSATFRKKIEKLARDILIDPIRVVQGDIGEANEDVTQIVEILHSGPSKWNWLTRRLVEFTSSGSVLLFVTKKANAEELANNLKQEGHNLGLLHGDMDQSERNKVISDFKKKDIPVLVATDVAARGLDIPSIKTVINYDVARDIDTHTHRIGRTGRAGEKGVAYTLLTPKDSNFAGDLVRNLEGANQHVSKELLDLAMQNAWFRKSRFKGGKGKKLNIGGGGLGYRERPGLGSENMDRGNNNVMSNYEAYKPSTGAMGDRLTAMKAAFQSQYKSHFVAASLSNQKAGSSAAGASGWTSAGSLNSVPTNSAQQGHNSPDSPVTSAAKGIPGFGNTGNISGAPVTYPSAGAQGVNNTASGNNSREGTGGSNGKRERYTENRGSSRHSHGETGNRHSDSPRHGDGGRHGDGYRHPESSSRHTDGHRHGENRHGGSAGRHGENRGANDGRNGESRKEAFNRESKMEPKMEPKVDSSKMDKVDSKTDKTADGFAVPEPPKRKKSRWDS
UniProt Q16531, whole entry, looked up: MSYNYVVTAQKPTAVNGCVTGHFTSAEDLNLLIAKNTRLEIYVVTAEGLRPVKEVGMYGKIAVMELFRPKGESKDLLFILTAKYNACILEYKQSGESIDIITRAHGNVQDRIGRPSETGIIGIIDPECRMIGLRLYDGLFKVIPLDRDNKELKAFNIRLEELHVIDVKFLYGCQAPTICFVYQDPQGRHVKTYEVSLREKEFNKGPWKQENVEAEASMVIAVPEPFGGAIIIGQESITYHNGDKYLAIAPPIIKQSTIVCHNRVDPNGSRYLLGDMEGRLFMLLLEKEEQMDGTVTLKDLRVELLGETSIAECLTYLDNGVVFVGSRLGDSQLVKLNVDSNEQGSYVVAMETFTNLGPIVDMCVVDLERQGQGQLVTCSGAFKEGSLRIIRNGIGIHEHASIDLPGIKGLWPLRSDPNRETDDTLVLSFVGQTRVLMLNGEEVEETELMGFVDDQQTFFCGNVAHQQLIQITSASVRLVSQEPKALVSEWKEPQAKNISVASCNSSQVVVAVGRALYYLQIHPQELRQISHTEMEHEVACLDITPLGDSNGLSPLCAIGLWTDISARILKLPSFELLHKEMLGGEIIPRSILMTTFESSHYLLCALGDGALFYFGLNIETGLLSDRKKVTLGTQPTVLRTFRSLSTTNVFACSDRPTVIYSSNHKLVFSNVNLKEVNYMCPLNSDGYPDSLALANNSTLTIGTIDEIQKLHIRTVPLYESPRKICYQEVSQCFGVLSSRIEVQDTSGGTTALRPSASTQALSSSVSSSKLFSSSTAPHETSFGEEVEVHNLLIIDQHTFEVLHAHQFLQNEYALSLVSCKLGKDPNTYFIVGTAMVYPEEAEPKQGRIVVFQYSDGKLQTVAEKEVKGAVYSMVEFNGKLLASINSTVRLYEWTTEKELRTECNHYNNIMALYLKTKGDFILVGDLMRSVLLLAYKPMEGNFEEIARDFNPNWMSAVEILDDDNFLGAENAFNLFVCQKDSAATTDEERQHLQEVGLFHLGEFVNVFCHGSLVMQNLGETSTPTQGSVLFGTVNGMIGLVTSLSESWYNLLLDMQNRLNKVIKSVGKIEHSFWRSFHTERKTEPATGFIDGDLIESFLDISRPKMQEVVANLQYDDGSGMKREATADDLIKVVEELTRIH
UniProt Q9BQ39: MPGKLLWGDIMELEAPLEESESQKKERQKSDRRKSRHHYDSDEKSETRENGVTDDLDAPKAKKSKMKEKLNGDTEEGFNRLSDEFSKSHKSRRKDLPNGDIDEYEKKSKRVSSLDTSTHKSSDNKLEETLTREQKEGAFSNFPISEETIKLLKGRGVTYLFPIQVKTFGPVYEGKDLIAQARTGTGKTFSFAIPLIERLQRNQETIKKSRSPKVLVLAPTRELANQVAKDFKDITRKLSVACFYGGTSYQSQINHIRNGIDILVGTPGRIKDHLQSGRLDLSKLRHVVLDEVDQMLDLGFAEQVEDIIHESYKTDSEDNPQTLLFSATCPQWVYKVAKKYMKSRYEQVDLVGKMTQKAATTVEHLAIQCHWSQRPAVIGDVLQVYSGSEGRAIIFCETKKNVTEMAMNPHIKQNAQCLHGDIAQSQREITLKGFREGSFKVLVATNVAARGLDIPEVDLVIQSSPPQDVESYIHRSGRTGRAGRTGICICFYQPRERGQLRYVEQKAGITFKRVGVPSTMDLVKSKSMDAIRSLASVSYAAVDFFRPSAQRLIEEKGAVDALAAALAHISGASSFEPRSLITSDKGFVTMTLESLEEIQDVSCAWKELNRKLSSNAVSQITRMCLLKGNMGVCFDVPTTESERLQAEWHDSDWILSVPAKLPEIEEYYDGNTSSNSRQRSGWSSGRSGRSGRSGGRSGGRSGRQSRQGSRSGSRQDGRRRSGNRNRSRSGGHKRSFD
UniProt Q8WYQ5: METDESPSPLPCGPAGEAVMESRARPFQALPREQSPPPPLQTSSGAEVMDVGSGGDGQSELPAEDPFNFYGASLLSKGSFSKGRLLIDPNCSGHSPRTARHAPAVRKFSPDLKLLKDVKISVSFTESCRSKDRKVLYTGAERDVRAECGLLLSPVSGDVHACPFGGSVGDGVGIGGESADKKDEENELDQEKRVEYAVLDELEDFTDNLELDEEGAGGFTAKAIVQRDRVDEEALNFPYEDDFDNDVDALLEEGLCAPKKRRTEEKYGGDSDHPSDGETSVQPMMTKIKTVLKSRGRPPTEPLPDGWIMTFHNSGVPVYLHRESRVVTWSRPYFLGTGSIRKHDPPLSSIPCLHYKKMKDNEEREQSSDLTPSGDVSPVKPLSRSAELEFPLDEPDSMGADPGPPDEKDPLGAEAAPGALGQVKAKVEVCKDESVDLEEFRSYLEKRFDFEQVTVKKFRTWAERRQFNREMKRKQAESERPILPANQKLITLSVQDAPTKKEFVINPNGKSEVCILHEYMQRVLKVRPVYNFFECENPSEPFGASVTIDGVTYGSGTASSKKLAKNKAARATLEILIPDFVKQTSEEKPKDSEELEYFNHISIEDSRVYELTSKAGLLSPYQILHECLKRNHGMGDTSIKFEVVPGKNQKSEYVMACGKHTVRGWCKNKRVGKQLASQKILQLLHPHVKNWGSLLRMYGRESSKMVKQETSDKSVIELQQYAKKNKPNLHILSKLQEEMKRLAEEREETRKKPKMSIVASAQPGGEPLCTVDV
UniProt Q7Z401: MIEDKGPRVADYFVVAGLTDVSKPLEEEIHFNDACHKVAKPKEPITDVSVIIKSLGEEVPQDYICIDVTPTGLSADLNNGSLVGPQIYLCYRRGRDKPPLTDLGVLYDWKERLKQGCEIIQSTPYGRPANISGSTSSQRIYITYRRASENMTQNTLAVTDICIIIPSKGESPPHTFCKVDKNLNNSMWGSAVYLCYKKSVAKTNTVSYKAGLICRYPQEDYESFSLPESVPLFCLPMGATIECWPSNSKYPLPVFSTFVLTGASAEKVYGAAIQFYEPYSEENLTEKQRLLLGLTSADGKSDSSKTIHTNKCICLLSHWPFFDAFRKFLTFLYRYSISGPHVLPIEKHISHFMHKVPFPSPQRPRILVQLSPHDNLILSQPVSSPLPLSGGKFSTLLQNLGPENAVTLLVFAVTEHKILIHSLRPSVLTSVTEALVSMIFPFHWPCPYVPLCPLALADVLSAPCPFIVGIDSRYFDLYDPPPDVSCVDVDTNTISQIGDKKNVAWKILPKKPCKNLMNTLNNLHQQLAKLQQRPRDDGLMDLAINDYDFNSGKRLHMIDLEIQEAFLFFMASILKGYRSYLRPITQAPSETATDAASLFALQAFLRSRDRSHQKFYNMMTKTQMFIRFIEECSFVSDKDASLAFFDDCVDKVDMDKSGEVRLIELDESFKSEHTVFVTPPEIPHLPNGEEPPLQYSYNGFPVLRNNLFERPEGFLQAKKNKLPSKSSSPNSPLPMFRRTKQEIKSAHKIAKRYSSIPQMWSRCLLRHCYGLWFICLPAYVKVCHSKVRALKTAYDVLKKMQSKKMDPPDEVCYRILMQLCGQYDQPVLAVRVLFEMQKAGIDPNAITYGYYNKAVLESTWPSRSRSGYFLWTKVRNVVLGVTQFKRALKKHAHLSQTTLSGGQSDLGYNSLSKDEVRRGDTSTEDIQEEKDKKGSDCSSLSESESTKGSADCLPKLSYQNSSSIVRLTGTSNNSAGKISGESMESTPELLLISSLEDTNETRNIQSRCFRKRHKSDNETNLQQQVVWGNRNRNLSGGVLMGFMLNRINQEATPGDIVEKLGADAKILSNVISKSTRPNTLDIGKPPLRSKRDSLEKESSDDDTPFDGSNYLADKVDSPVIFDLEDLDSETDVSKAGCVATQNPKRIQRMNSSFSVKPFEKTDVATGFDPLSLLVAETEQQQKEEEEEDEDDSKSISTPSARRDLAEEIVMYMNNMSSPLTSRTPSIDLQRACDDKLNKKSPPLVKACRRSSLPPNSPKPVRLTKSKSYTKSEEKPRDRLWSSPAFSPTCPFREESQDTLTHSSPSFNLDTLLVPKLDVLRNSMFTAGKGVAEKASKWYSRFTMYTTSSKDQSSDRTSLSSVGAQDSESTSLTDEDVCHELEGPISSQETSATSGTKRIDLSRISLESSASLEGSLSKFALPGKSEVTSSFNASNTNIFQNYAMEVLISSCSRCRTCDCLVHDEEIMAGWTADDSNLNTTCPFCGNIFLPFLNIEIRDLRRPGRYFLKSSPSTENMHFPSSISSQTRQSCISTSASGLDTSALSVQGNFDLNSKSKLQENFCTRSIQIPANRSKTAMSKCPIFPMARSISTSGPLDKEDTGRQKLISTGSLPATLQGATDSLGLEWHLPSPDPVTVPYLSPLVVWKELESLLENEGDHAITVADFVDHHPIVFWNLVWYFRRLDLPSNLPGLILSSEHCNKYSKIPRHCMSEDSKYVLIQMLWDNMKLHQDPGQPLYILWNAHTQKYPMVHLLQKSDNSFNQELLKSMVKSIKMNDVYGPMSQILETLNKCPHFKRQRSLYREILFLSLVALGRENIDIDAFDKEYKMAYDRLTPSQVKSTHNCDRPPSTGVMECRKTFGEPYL
UniProt O43583: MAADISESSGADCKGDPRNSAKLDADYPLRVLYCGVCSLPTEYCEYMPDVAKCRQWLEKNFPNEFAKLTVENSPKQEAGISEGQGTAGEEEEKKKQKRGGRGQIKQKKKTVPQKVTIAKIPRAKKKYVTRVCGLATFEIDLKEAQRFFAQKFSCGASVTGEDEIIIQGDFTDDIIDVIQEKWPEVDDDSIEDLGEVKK

| Target | probe-labelled cysteine peptide fold change (10 µM) | probe-labelled cysteine peptide fold change (50 µM) |
| --- | --- | --- |
| DDX39B_Q13838_239_EIRPVCR (UniProt Q13838) | -0.016 | 0.0102 |
| DESI1_Q6ICB0_108_GEAYNLFEHNCNTFSNEVAQFLTGR (UniProt Q6ICB0) | 0.192 | -0.119 |
| DDX18_Q9NVP1_407_ANATVDGLEQGYVVCPSEKR (UniProt Q9NVP1) | -0.154 | -0.0188 |
| DDX54_Q8TDD1_149_TACFLLPMFER (UniProt Q8TDD1) | -0.107 | 0.113 |
| DDX27_Q96GQ7_259_DICACAATGTGK (UniProt Q96GQ7) | -0.0135 | 0.0172 |
| DDX1_Q92499_519_TKIDCDNLEQYFIQQGGGPDKK (UniProt Q92499) | -0.196 | -0.185 |
| DDX3X_O00571_223_RDLMACAQTGSGK (UniProt O00571) | -0.0404 | -0.163 |
| DGKZ_Q13574_265_SGLQHLAPPPPTPGAPCSESER (UniProt Q13574) | 0.058 | -0.108 |
| DEF6_Q9H4E7_266+267_GIIPLDAHCCVEVLPDRDGKR (UniProt Q9H4E7) | -0.0276 | 0.00378 |
| DGKQ_P52824_171_QCHQDGHQDHDTHHHHWR (UniProt P52824) | 0.225 | 0.0308 |
| DDX10_Q13206_392_GLDFPAVNWVLQFDCPEDANTYIHR (UniProt Q13206) | 0.113 | 0.0493 |
| DEF6_Q9H4E7_266_GIIPLDAHCCVEVLPDRDGKR (UniProt Q9H4E7) | 0.0844 | 0.169 |
| DDX58_O95786_428_NTDEALDYICK (UniProt O95786) | 0.0328 | 0.169 |
| DDX42_Q86XP3_346_ELCQQIHAECK (UniProt Q86XP3) | 0.102 | 0.0981 |
| DDX55_Q8NHQ9_161_AEGLDLASCVR (UniProt Q8NHQ9) | 0.0838 | -0.0351 |
| DDX60_Q8IY21_1591_VAISPFVCLSGNFDDDLLRLETPNHVTLGTIGVNR (UniProt Q8IY21) | -0.227 | -0.391 |
| DDX42_Q86XP3_346_ELCQQIHAECKR (UniProt Q86XP3) | -0.0643 | 0.0687 |
| DDX39B_Q13838_300_CIALAQLLVEQNFPAIAIHR (UniProt Q13838) | 0.224 | 0.206 |
| DENND3_A2RUS2_1174_TLCSAEDRYVLSGSGR (UniProt A2RUS2) | -0.113 | -0.0819 |
| DECR2_Q9NUI1_53_HGCHTVIASR (UniProt Q9NUI1) | 0.317 | 0.574 |
| DENND4B_O75064_652_HAALEFFDSCVEK (UniProt O75064) | 0.102 | 0.0937 |

| Target | probe-labelled cysteine peptide fold change (10 µM) | probe-labelled cysteine peptide fold change (50 µM) |
| --- | --- | --- |
| DECR2_Q9NUI1_22_HLFCPDLLR (UniProt Q9NUI1) | 0.0413 | -0.0816 |
| DDB1_Q16531_260_QSTIVCHNR (UniProt Q16531) | 0.00141 | -0.00159 |
| DENND4C_Q5VZ89_1211_VVQREDVETGLDPLSLLATECTGGK (UniProt Q5VZ89) | -0.00268 | -0.0496 |
| DDX60L_Q5H9U9_1671_DFAFNIQAISDSLSELCENKR (UniProt Q5H9U9) | 0.195 | 0.494 |
| DDX17_Q92841_447_DGWPAMCIHGDK (UniProt Q92841) | -0.162 | -0.231 |
| DDX50_Q9BQ39_242_LSVACFYGGTSYQSQINHIR (UniProt Q9BQ39) | 0.0149 | 0.092 |
| DDX24_Q9GZR7_570_IHCETDEK (UniProt Q9GZR7) | 0.225 | 0.0934 |
| DDX50_Q9BQ39_490_TGICICFYQPR (UniProt Q9BQ39) | -0.136 | 0.0456 |
| DGCR8_Q8WYQ5_657_SEYVMACGK (UniProt Q8WYQ5) | -0.121 | -0.101 |
| DDHD2_O94830_470_ESEFCSSSNTR (UniProt O94830) | -0.156 | -0.169 |
| DGCR8_Q8WYQ5_514_SEVCILHEYMQR (UniProt Q8WYQ5) | 0.121 | 0.0425 |
| DDX28_Q9NUL7_453_DILLCTDIASR (UniProt Q9NUL7) | 0.0908 | 0.0393 |
| DDX5_P17844_170_TLSYLLPAIVHINHQPFLERGDGPICLVLAPTR (UniProt P17844) | 0.109 | 0.271 |
| DGKZ_Q13574_876_EASVPLGTVVVPGDSDLELCR (UniProt Q13574) | 0.514 | 0.581 |
| DDX50_Q9BQ39_417_QNAQCLHGDIAQSQR (UniProt Q9BQ39) | 0.0732 | -0.163 |
| DDX46_Q7L014_478_VVCVYGGTGISEQIAELKR (UniProt Q7L014) | -0.0396 | -0.03 |
| DDX5_P17844_320_DYIHINIGALELSANHNILQIVDVCHDVEKDEK (UniProt P17844) | -0.181 | -0.191 |
| DDX52_Q9Y2R4_342_TGFRDQLASIFLACTSHK (UniProt Q9Y2R4) | -0.189 | 0.0165 |
| DDB1_Q16531_903_TECNHYNNIMALYLK (UniProt Q16531) | 0.114 | 0.0907 |
| DDX60L_Q5H9U9_502_CHVDEQSR (UniProt Q5H9U9) | -0.013 | -0.526 |
| DENND4A_Q7Z401_648_DASLAFFDDCVDKVDMDK (UniProt Q7Z401) | -0.0956 | -0.12 |

| Target | probe-labelled cysteine peptide fold change (10 µM) | probe-labelled cysteine peptide fold change (50 µM) |
| --- | --- | --- |
| DGKZ_Q13574_793_AIPVQVDGEPCK (UniProt Q13574) | 0.052 | -0.0179 |
| DDX41_Q9UJV9_281_QTHGILEYYCR (UniProt Q9UJV9) | 0.0671 | 0.166 |
| DDX27_Q96GQ7_357_LIDHLHNCPSFHLSSIEVLILDEADR (UniProt Q96GQ7) | 0.388 | 0.0579 |
| DDAH1_O94760_222_LTVPDDIAANCIYLNIPNK (UniProt O94760) | -0.16 | 0.0797 |
| DDX1_Q92499_519_IDCDNLEQYFIQQGGGPDKK (UniProt Q92499) | 0.0188 | -0.0204 |
| DGKH_Q86XP1_1014_ICDAATIHCLLEQELAHAVNACSHALNK (UniProt Q86XP1) | 0.0915 | -0.00443 |
| DDX39A_O00148_62+86_AIVDCGFEHPSEVQHECIPQAILGMDVLCQAK (UniProt O00148) | 0.305 | -0.194 |
| DGKA_P23743_432_ILVCGGDGTVGWILETIDK (UniProt P23743) | -0.0114 | 0.00463 |
| DDB1_Q16531_652_SLSTTNVFACSDRPTVIYSSNHK (UniProt Q16531) | 0.282 | -0.133 |
| DENND3_A2RUS2_723_NECVCK (UniProt A2RUS2) | -0.0349 | 0.115 |
| DDX24_Q9GZR7_467_CLVVDEADRMVEK (UniProt Q9GZR7) | -0.109 | -0.0385 |
| DGAT2_Q96PD7_312_YIGFAPCIFHGR (UniProt Q96PD7) | 0.0098 | 0.249 |
| DDX59_Q5T1V6_208_QQLGILVQGQEVTRPIIDFEHCSLPEVLNHNLK (UniProt Q5T1V6) | -0.0333 | -0.158 |
| DDX20_Q9UHI6_181_CHIAVGSPGR (UniProt Q9UHI6) | 0.0244 | 0.0669 |
| DDOST_P39656_145_ELGSECGIEFDEEK (UniProt P39656) | 0.0142 | -0.00767 |
| DGKZ_Q13574_330_IVVHTPCIEQLEK (UniProt Q13574) | 0.184 | -0.058 |
| DDX60L_Q5H9U9_1449_GLFHNLCK (UniProt Q5H9U9) | -0.193 | 0.241 |
| DDX5_P17844_170_GDGPICLVLAPTR (UniProt P17844) | 0.079 | 0.298 |
| DENND4A_Q7Z401_952_GSADCLPK (UniProt Q7Z401) | -0.0509 | -0.0718 |
| DDX5_P17844_320_DYIHINIGALELSANHNILQIVDVCHDVEK (UniProt P17844) | 0.213 | -0.0468 |
| DDX39A_O00148_238_DIRPVCR (UniProt O00148) | 0.0321 | 0.00375 |

| Target | probe-labelled cysteine peptide fold change (10 µM) | probe-labelled cysteine peptide fold change (50 µM) |
| --- | --- | --- |
| DDX21_Q9NR30_539_TGVCICFYQHK (UniProt Q9NR30) | -0.0402 | -0.0081 |
| DGKD_Q16760_596_LVASACPARPQIFRPR (UniProt Q16760) | -0.0465 | 0.0807 |
| DDX3X_O00571_468_KGADSLEDFLYHEGYACTSIHGDR (UniProt O00571) | 0.0542 | -0.0542 |
| DENR_O43583_132_VCGLATFEIDLK (UniProt O43583) | 0.404 | 0.391 |
| DDX1_Q92499_544_KGHQFSCVCLHGDR (UniProt Q92499) | 0.0707 | 0.000187 |
| DDX5_P17844_221_GVEICIATPGR (UniProt P17844) | -0.0686 | 0.323 |
| DDX17_Q92841_584_TTSSANNPNLMYQDECDR (UniProt Q92841) | 0.126 | 0.000422 |
| DDX17_Q92841_447_RDGWPAMCIHGDK (UniProt Q92841) | -0.122 | -0.265 |
| DDI2_Q5TDH0_34_ALCELESGIPAAESQIVYAERPLTDNHR (UniProt Q5TDH0) | -0.201 | -0.101 |
| DENND4A_Q7Z401_35_PLEEEIHFNDACHK (UniProt Q7Z401) | 0.118 | 0.123 |
| DENR_O43583_44_VLYCGVCSLPTEYCEYMPDVAK (UniProt O43583) | -0.0798 | -0.0802 |
| DGKZ_Q13574_713_IQDLKPQCVVFLNIPR (UniProt Q13574) | -0.0674 | 0.057 |
| DECR2_Q9NUI1_13_AQPPPDVEGDDCLPAYR (UniProt Q9NUI1) | -0.174 | 0.067 |
| DDX6_P26196_341_LQINQSIIFCNSSQR (UniProt P26196) | -0.0622 | 0.121 |
| DDX27_Q96GQ7_261_DICACAATGTGK (UniProt Q96GQ7) | 0.0314 | 0.129 |
| DDX6_P26196_390_NLVCTDLFTR (UniProt P26196) | 0.136 | 0.154 |
| DENND3_A2RUS2_61_EDCVHFLVLTDVCGNR (UniProt A2RUS2) | 0.0659 | 0.04 |
| DDX60_Q8IY21_857_HDALNCQVLITVPACFEILLLAPHR (UniProt Q8IY21) | -0.153 | 0.221 |
| DEF6_Q9H4E7_94_EHFDELCWTLTAK (UniProt Q9H4E7) | 0.0244 | 0.0187 |
| DENND3_A2RUS2_499_LTDTAGCR (UniProt A2RUS2) | 0.00569 | -0.0235 |
